In the supplement of paper PMC6331611:
± gives the standard deviation of the averaged measurements. Over roughly 1,600 compounds, “normalized intracellular growth (luminescence, IQM-normalized) in RAW264.7 macrophages” has its median near 1; the lowest 2% begin near 0.43. This is one part of the list.

Test system: Salmonella enterica serovar Typhimurium SL1344
Assay: normalized intracellular growth (luminescence, IQM-normalized) in RAW264.7 macrophages (fraction of plate interquartile mean); higher = more bacterial growth (less inhibition)
Conditions: 10 µM

| SMILES | normalized intracellular growth (time point: T3 (3 h)) | normalized intracellular growth (time point: Tfinal (~6 h)) |
| --- | --- | --- |
| O=C(NC(Cc1cc(=O)[nH]c2ccccc12)C(=O)O)c1ccc(Cl)cc1 (configuration not stated) | 0.942 ± 0.038 | 1.08 ± 0.085 |
| OC[C@H]1O[C@@H](O[C@H]2[C@H](O)[C@@H](O)C(O)O[C@@H]2CO)[C@H](O)[C@@H](O)[C@H]1O (some centres not stated) | 1.05 ± 0.022 | 1.04 ± 0.026 |
| COC(=O)/C=C/C(=O)OC | 0.935 ± 0.047 | 0.937 ± 0.028 |
| CC(C)(C)NC[C@H](O)COc1cccc2c1CCCC2=O | 0.97 ± 0.046 | 1.08 ± 0.088 |
| C[N+](C)(C)CCOC(N)=O | 1.05 ± 0.049 | 1.25 ± 0.18 |
| CN(C)CCc1c[nH]c2ccc(CS(=O)(=O)N3CCCC3)cc12 | 0.989 ± 0.027 | 1.14 ± 0.15 |
| O=C(O)CCC(=O)c1ccc(-c2ccccc2)cc1 | 0.986 ± 0.022 | 0.929 ± 0.033 |
| CN1CCN2c3ccccc3Cc3ccccc3C2C1 (configuration not stated) | 1.03 ± 0.017 | 0.916 ± 0.039 |
| CCC(C)(C)C(=O)O[C@H]1C[C@@H](C)C=C2C=C[C@H](C)[C@H](CC[C@@H]3C[C@@H](O)CC(=O)O3)[C@H]21 | 1.05 ± 0.076 | 1.19 ± 0.1 |
| C[C@@H]1CN(c2c(F)c(F)c3c(=O)c(C(=O)O)cn(C4CC4)c3c2F)C[C@H](C)N1 | 0.986 ± 0.025 | 0.0257 ± 0.0074 |
| CCOC(=O)CC(=O)N1CCSC1COc1ccccc1OC (configuration not stated) | 1.11 ± 0.046 | 1.08 ± 0.093 |
| O=[N+]([O-])c1ccc(O)c2ncccc12 | 1.04 ± 0.11 | 1.133 ± 0.011 |
| CC(O)(CC(=O)O)CC(=O)O | 0.971 ± 0.034 | 1.02 ± 0.061 |
| CCCc1nn(C)c2c(=O)[nH]c(-c3cc(S(=O)(=O)N4CCN(C)CC4)ccc3OCC)nc12 | 0.968 ± 0.14 | 1.21 ± 0.12 |
| CCCNC(C)(C)COC(=O)c1ccccc1 | 0.828 ± 0.083 | 0.1174 ± 0.0011 |
| CCC1(C)CC(=O)NC1=O (configuration not stated) | 1.02 ± 0.052 | 1.08 ± 0.11 |
| CC(=O)Nc1ccc(OC(C)=O)cc1 | 0.987 ± 0.072 | 1.16 ± 0.066 |
| NC1CCN(c2c(F)cc3c(=O)c(C(=O)O)cn(C4CC4)c3c2Cl)C1 (configuration not stated) | 1.49 ± 0.071 | 0.00632 ± 0.00035 |
| CC(NCCc1ccc(O)cc1)C(O)c1ccc(O)cc1 (configuration not stated) | 1.03 ± 0.081 | 1.13 ± 0.11 |
| CCc1nn(CCCN2CCN(c3cccc(Cl)c3)CC2)c(=O)n1CCOc1ccccc1 | 0.988 ± 0.036 | 0.955 ± 0.053 |
| O=S(=O)(c1cccc2cnccc12)N1CCCNCC1 | 1.02 ± 0.035 | 1.13 ± 0.067 |
| Nc1nc(/C(=C/CC(=O)O)C(=O)N[C@@H]2C(=O)N3C(C(=O)O)=CCS[C@H]23)cs1 | 0.951 ± 0.059 | 0.0259 ± 0.0032 |
| CN(C)CCOC(=O)C(c1ccccc1)C1(O)CCCC1 (configuration not stated) | 1.07 ± 0.032 | 0.963 ± 0.016 |

| SMILES | normalized intracellular growth (time point: T3 (3 h)) | normalized intracellular growth (time point: Tfinal (~6 h)) |
| --- | --- | --- |
| Nc1ccc(/N=N/c2ccccc2)c(N)n1 | 0.941 ± 0.071 | 0.954 ± 0.2 |
| C[C@H](N[C@@H](CCc1ccccc1)C(=O)O)C(=O)N1Cc2ccccc2C[C@H]1C(=O)O | 1.03 ± 0.079 | 1.08 ± 0.12 |
| CCC(=O)O[C@]1(C(=O)SCF)[C@H](C)C[C@H]2[C@@H]3C[C@H](F)C4=CC(=O)C=C[C@]4(C)[C@@]3(F)[C@@H](O)C[C@@]21C | 0.969 ± 0.033 | 0.815 ± 0.1 |
| O=C(O)c1ccccc1Nc1cccc(C(F)(F)F)c1 | 0.939 ± 0.071 | 0.864 ± 0.15 |
| OCCc1ccccc1 | 0.981 ± 0.058 | 0.955 ± 0.12 |
| CC(=O)Nc1ccc(S(=O)(=O)c2ccc(NC(C)=O)cc2)cc1 | 1.01 ± 0.04 | 0.912 ± 0.062 |
| O=C1O[C@H]([C@@H](O)CO)C(O)=C1O | 1.01 ± 0.061 | 1.05 ± 0.094 |
| Clc1ccc(C(c2ccccc2Cl)C(Cl)Cl)cc1 (configuration not stated) | 0.967 ± 0.039 | 1.26 ± 0.14 |
| C[N+](C)(C)C[C@H](O)CC(=O)[O-] | 1.022 ± 0.0093 | 1.25 ± 0.13 |
| OC(CCN1CCCC1)(c1ccccc1)C1CCCCC1 (configuration not stated) | 1.05 ± 0.051 | 1.02 ± 0.052 |
| CC(C)NCC(O)COc1cccc2[nH]ccc12 (configuration not stated) | 0.744 ± 0.1 | 0.9 ± 0.097 |
| CC(CN(C)C)CN1c2ccccc2CCc2ccccc21 (configuration not stated) | 0.997 ± 0.058 | 1.17 ± 0.076 |
| CCCCOc1ccc(C(=O)CCN2CCCCC2)cc1 | 1.02 ± 0.094 | 1.17 ± 0.097 |
| CC(C)(C)CC(C)(C)c1ccc(OCCOCC[N+](C)(C)Cc2ccccc2)cc1 | 0.972 ± 0.036 | 0.901 ± 0.032 |
| Cn1nnc2c(C(N)=O)ncn2c1=O | 1.03 ± 0.017 | 1.03 ± 0.045 |
| CC(C)(C)NC(=O)[C@H]1CC[C@H]2[C@@H]3CC[C@H]4NC(=O)C=C[C@]4(C)[C@H]3CC[C@]12C | 1.15 ± 0.086 | 1.36 ± 0.065 |
| C=C1CC[C@H](O)C/C1=C/C=C1\CCC[C@]2(C)[C@@H]([C@H](C)/C=C/[C@H](C)C(C)C)CC[C@@H]12 | 1.04 ± 0.059 | 1.2 ± 0.086 |
| Nc1nc(N)c2nc(-c3ccccc3)c(N)nc2n1 | 0.838 ± 0.039 | 1.07 ± 0.03 |
| Cc1c(Nc2ncccc2C(=O)O)cccc1C(F)(F)F | 1.02 ± 0.056 | 1.07 ± 0.052 |
| CC[C@H](c1ccc(O)cc1)[C@@H](CC)c1ccc(O)cc1 | 0.997 ± 0.051 | 1.03 ± 0.19 |
| C[C@]12CCC(=O)C=C1CC[C@@H]1[C@@H]2[C@@H](O)C[C@@]2(C)[C@H]1CC[C@]2(O)C(=O)COP(=O)(O)O | 0.9812 ± 0.0046 | 0.999 ± 0.047 |
| CC(=O)OCC(=O)[C@@]1(O)CC[C@H]2[C@@H]3CCC4=CC(=O)C=C[C@]4(C)[C@H]3[C@@H](O)C[C@@]21C | 0.822 ± 0.19 | 0.823 ± 0.06 |
| CC1(C)O[C@@H]2C[C@H]3[C@@H]4C[C@H](F)C5=CC(=O)C=C[C@]5(C)[C@H]4[C@@H](O)C[C@]3(C)[C@]2(C(=O)CO)O1 | 1.028 ± 0.0072 | 0.938 ± 0.02 |

One compound at a time, as listed above:
NC1CCN(c2c(F)cc3c(=O)c(C(=O)O)cn(C4CC4)c3c2Cl)C1 (configuration not stated) is entered as normalized intracellular growth (time point: T3 (3 h)): 1.49 ± 0.071; normalized intracellular growth (time point: Tfinal (~6 h)): 0.00632 ± 0.00035
CCC(C)(C)C(=O)O[C@H]1C[C@@H](C)C=C2C=C[C@H](C)[C@H](CC[C@@H]3C[C@@H](O)CC(=O)O3)[C@H]21 is entered as normalized intracellular growth (time point: T3 (3 h)): 1.05 ± 0.076; normalized intracellular growth (time point: Tfinal (~6 h)): 1.19 ± 0.1
